PubChem BioAssay AID1508597 | Cure First, 2020

Test: 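Knock-downs altering ovarian cancer cell survival with or without PARP inhibitor rucaparib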 (primary screen)
System: human ovarian carcinoma lines grown from tumours: OCI-P5x (papillary serous) and OCI-C5x (clear cell)
Reagents: siRNA pool against human genes, 1.25 pmol siRNA per well
Time to read-out: 72 h or 96 h, depending on the cell culture
Conditions: rucaparib 20 µM (about IC30) or vehicle, present until read-out
Rucaparib or vehicle: Rucaparib
Cell line: OCI-P5x (serous)
Read-out: 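ATP luminescence measured at 72 or 96 h according to the culture, then normalised and expressed as percent viability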
Scale: viability, normalised: higher = more viable cells remaining
Hit rule: 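a well counts as a hit if its normalised viability is under 80 percent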
Meaning of the calls: active = viability under 80%; inactive = viability 80% or more
This is an unselected part of the about 2,100 reagents, in one setting of the screen. 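Calls flag viability under 80% in either arm, not effects specific to rucaparib; the reference for percent is not stated.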 A number with no mark means an inactive call. A reagent listed more than once was tested more than once; the source does not tell the runs apart. Reagent sequences are not shown. Not given: the 100% reference.

gene | technical replicate | viability, normalised (%)
RB1 (GeneID 5925) | 1 | 26.7 (active)
RB1 (GeneID 5925) | 2 | 35.4 (active)
RB1 (GeneID 5925) | 3 | 34.8 (active)
MRPL58 (GeneID 3396) | 1 | 68.7 (active)
MRPL58 (GeneID 3396) | 1 | 59.3 (active)
MRPL58 (GeneID 3396) | 2 | 59.7 (active)
MRPL58 (GeneID 3396) | 2 | 54.5 (active)
MRPL58 (GeneID 3396) | 3 | 64.8 (active)
MRPL58 (GeneID 3396) | 3 | 96
GGCT (GeneID 79017) | 1 | 61 (active)
GGCT (GeneID 79017) | 2 | 64.6 (active)
GGCT (GeneID 79017) | 3 | 74.8 (active)
PCDHB6 (GeneID 56130) | 1 | 60.9 (active)
PCDHB6 (GeneID 56130) | 2 | 63.5 (active)
PCDHB6 (GeneID 56130) | 3 | 67.1 (active)
ALKBH2 (GeneID 121642) | 1 | 52 (active)
ALKBH2 (GeneID 121642) | 2 | 63 (active)
ALKBH2 (GeneID 121642) | 3 | 50.5 (active)
CA14 (GeneID 23632) | 1 | 70.4 (active)
CA14 (GeneID 23632) | 2 | 64.8 (active)
CA14 (GeneID 23632) | 3 | 50.5 (active)
PARP8 (GeneID 79668) | 1 | 25.8 (active)
PARP8 (GeneID 79668) | 2 | 25.8 (active)
PARP8 (GeneID 79668) | 3 | 38.7 (active)

The list goes on, starting with the last 7 of the part before.
gene | technical replicate | viability, normalised (%)
ALKBH2 (GeneID 121642) | 3 | 50.5 (active)
CA14 (GeneID 23632) | 1 | 70.4 (active)
CA14 (GeneID 23632) | 2 | 64.8 (active)
CA14 (GeneID 23632) | 3 | 50.5 (active)
PARP8 (GeneID 79668) | 1 | 25.8 (active)
PARP8 (GeneID 79668) | 2 | 25.8 (active)
PARP8 (GeneID 79668) | 3 | 38.7 (active)
ILK (GeneID 3611) | 1 | 186
ILK (GeneID 3611) | 2 | 184
ILK (GeneID 3611) | 3 | 132
MAPK10 (GeneID 5602) | 1 | 91.4
MAPK10 (GeneID 5602) | 2 | 91.8
MAPK10 (GeneID 5602) | 3 | 81
PIAS2 (GeneID 9063) | 1 | 46.3 (active)
PIAS2 (GeneID 9063) | 2 | 52.4 (active)
PIAS2 (GeneID 9063) | 3 | 50.2 (active)
SMARCD2 (GeneID 6603) | 1 | 46.7 (active)
SMARCD2 (GeneID 6603) | 2 | 59.5 (active)
SMARCD2 (GeneID 6603) | 3 | 46.7 (active)
ELAC1 (GeneID 55520) | 1 | 45 (active)
ELAC1 (GeneID 55520) | 2 | 41.4 (active)
ELAC1 (GeneID 55520) | 3 | 49.1 (active)
IGHMBP2 (GeneID 3508) | 1 | 58.7 (active)
IGHMBP2 (GeneID 3508) | 1 | 42.6 (active)
IGHMBP2 (GeneID 3508) | 2 | 72.3 (active)
IGHMBP2 (GeneID 3508) | 2 | 64.1 (active)
IGHMBP2 (GeneID 3508) | 3 | 76.5 (active)
IGHMBP2 (GeneID 3508) | 3 | 58.4 (active)
MSH5 (GeneID 4439) | 1 | 108
MSH5 (GeneID 4439) | 2 | 106
MSH5 (GeneID 4439) | 3 | 90.3
CIT (GeneID 11113) | 1 | 105
CIT (GeneID 11113) | 2 | 91.4
CIT (GeneID 11113) | 3 | 82.5
S100A4 (GeneID 6275) | 1 | 37.8 (active)
S100A4 (GeneID 6275) | 2 | 37.1 (active)
S100A4 (GeneID 6275) | 3 | 31.3 (active)
H4C3 (GeneID 8364) | 1 | 53.4 (active)
H4C3 (GeneID 8364) | 2 | 52.4 (active)
H4C3 (GeneID 8364) | 3 | 52 (active)
